Experimental data as given in the supplement of paper PMC6078165.
± gives the standard deviation of the averaged measurements. The reference is the same well before dosing, and untreated signal decays as well.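 Labels refer to human fibroblasts, largely primary: uterine (C12385, HUF), lung (H6013), bone (Hs27A), adrenal (HADF), skin (WS1), plus mammary HMF and breast cancer-associated Hs343T. Cancer lines are basal-like or mesenchymal-like triple-negative breast cancer. The paper counts as hits responses shifting over 3x the replicate standard deviation. The tissue of the other fibroblasts is not given here.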

System: HCC1143
Test: relative JC-1 red fluorescence (viability) vs pre-drug, coculture with fibroblast (fraction); higher = more viable cancer cells
Procedure: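 JC-1 labelled TNBC cells cocultured 1:1 (1,500 cells each) with CellTrace Violet stained primary or stromal fibroblasts in 384-well plates in FluoroBrite medium, treated with one of 42 anticancer drugs at 0.1, 1, 10 or 100 uM. JC-1 red fluorescence (mitochondrial integrity in cancer cells only) was read by plate reader every 8 h for 72 h. Values are normalised to each well's pre-drug value. The stock of one drug was tenfold lower, so its dose labels may be too high.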

CS(=O)(=O)CCNCc1ccc(-c2ccc3ncnc(Nc4ccc(OCc5cccc(F)c5)c(Cl)c4)c3c2)o1 [Lapatinib]
relative JC-1 red fluorescence
Conditions | 8 h | 16 h | 24 h | 32 h | 40 h | 48 h | 56 h | 64 h | 72 h
0.1 µM, coculture fibroblast: C12385 | 0.85366 ± 0.00012 | 0.785 ± 0.011 | 0.693 ± 0.011 | 0.606 ± 0.018 | 0.534 ± 0.0091 | 0.479 ± 0.011 | 0.438 ± 0.014 | 0.392 ± 0.029 | 0.37 ± 0.04
0.1 µM, coculture fibroblast: H6013 | 0.774 ± 0.04 | 0.678 ± 0.019 | 0.625 ± 0.015 | 0.6026 ± 0.0033 | 0.522 ± 0.014 | 0.503 ± 0.012 | 0.466 ± 0.0097 | 0.444 ± 0.019 | 0.4158 ± 0.001
0.1 µM, coculture fibroblast: H6019 | 0.825 ± 0.013 | 0.724 ± 0.013 | 0.688 ± 0.019 | 0.622 ± 0.025 | 0.59 ± 0.03 | 0.565 ± 0.028 | 0.516 ± 0.025 | 0.472 ± 0.011 | 0.4331 ± 0.0025
0.1 µM, coculture fibroblast: H6076 | 0.795 ± 0.018 | 0.712 ± 0.017 | 0.679 ± 0.011 | 0.6939 ± 0.0041 | 0.627 ± 0.011 | 0.63 ± 0.021 | 0.602 ± 0.03 | 0.589 ± 0.044 | 0.611 ± 0.042
0.1 µM, coculture fibroblast: H6231 | 0.806 ± 0.016 | 0.848 ± 0.081 | 0.749 ± 0.047 | 0.604 ± 0.0089 | 0.648 ± 0.028 | 0.611 ± 0.022 | 0.574 ± 0.024 | 0.534 ± 0.015 | 0.507 ± 0.009
0.1 µM, coculture fibroblast: HADF | 0.732 ± 0.024 | 0.654 ± 0.038 | 0.619 ± 0.047 | 0.616 ± 0.023 | 0.53 ± 0.059 | 0.497 ± 0.082 | 0.467 ± 0.077 | 0.436 ± 0.08 | 0.427 ± 0.039
0.1 µM, coculture fibroblast: HCFa | 0.7881 ± 0.006 | 0.706 ± 0.015 | 0.66 ± 0.03 | 0.638 ± 0.027 | 0.558 ± 0.023 | 0.53 ± 0.0055 | 0.482 ± 0.0091 | 0.439 ± 0.011 | 0.418 ± 0.018
0.1 µM, coculture fibroblast: HCPF | 0.793 ± 0.019 | 0.799 ± 0.011 | 0.729 ± 0.014 | 0.638 ± 0.033 | 0.653 ± 0.016 | 0.618 ± 0.03 | 0.587 ± 0.041 | 0.554 ± 0.046 | 0.534 ± 0.053
0.1 µM, coculture fibroblast: HHSteC | 0.828 ± 0.011 | 0.742 ± 0.016 | 0.701 ± 0.03 | 0.672 ± 0.029 | 0.591 ± 0.025 | 0.564 ± 0.017 | 0.522 ± 0.019 | 0.486 ± 0.017 | 0.449 ± 0.028
0.1 µM, coculture fibroblast: HMF | 0.797 ± 0.028 | 0.847 ± 0.022 | 0.7594 ± 0.0047 | 0.6779 ± 0.0023 | 0.665 ± 0.0009 | 0.6304 ± 0.0018 | 0.5942 ± 0.0056 | 0.562 ± 0.015 | 0.54 ± 0.016
0.1 µM, coculture fibroblast: HPFa | 0.935 ± 0.026 | 0.857 ± 0.037 | 0.806 ± 0.023 | 0.726 ± 0.032 | 0.657 ± 0.023 | 0.619 ± 0.025 | 0.561 ± 0.041 | 0.499 ± 0.034 | 0.456 ± 0.038
0.1 µM, coculture fibroblast: HUF | 0.8919 ± 0.0066 | 0.796 ± 0.014 | 0.741 ± 0.015 | 0.659 ± 0.0072 | 0.6153 ± 0.0039 | 0.5842 ± 0.0007 | 0.5388 ± 0.0017 | 0.50326 ± 0.00044 | 0.4707 ± 0.0035
0.1 µM, coculture fibroblast: Hs5 | 0.856 ± 0.022 | 0.817 ± 0.019 | 0.791 ± 0.028 | 0.786 ± 0.022 | 0.712 ± 0.026 | 0.686 ± 0.034 | 0.665 ± 0.037 | 0.639 ± 0.019 | 0.644 ± 0.027
0.1 µM, coculture fibroblast: Hs27A | 0.7033 ± 0.0044 | 0.621 ± 0.015 | 0.578 ± 0.012 | 0.5982 ± 0.0047 | 0.472 ± 0.01 | 0.4454 ± 0.00064 | 0.4034 ± 0.0037 | 0.365 ± 0.0044 | 0.356 ± 0.0062
0.1 µM, coculture fibroblast: Hs343T | 0.814 ± 0.029 | 0.821 ± 0.049 | 0.77 ± 0.067 | 0.71 ± 0.045 | 0.69 ± 0.068 | 0.666 ± 0.073 | 0.621 ± 0.073 | 0.588 ± 0.06 | 0.564 ± 0.058
0.1 µM, coculture fibroblast: WS1 | 0.8534 ± 0.0082 | 0.791 ± 0.034 | 0.736 ± 0.053 | 0.67 ± 0.083 | 0.613 ± 0.11 | 0.564 ± 0.096 | 0.513 ± 0.084 | 0.473 ± 0.099 | 0.451 ± 0.094
1 µM, coculture fibroblast: C12385 | 0.832 ± 0.011 | 0.7747 ± 0.0075 | 0.701 ± 0.0076 | 0.633 ± 0.031 | 0.563 ± 0.048 | 0.513 ± 0.049 | 0.478 ± 0.056 | 0.44 ± 0.063 | 0.42 ± 0.068
1 µM, coculture fibroblast: H6013 | 0.772 ± 0.012 | 0.735 ± 0.054 | 0.7 ± 0.068 | 0.676 ± 0.072 | 0.616 ± 0.067 | 0.605 ± 0.072 | 0.572 ± 0.072 | 0.56 ± 0.067 | 0.546 ± 0.06
1 µM, coculture fibroblast: H6019 | 0.871 ± 0.011 | 0.822 ± 0.025 | 0.791 ± 0.032 | 0.742 ± 0.042 | 0.728 ± 0.03 | 0.711 ± 0.043 | 0.677 ± 0.051 | 0.644 ± 0.049 | 0.626 ± 0.039
1 µM, coculture fibroblast: H6076 | 0.814 ± 0.0089 | 0.8496 ± 0.003 | 0.7953 ± 0.00017 | 0.726 ± 0.019 | 0.69 ± 0.02 | 0.66 ± 0.026 | 0.62 ± 0.033 | 0.592 ± 0.017 | 0.585 ± 0.018
1 µM, coculture fibroblast: H6231 | 0.824 ± 0.01 | 0.7965 ± 0.0041 | 0.7437 ± 0.0069 | 0.636 ± 0.0074 | 0.634 ± 0.014 | 0.59 ± 0.014 | 0.5583 ± 0.005 | 0.5204 ± 0.0028 | 0.515 ± 0.0056
1 µM, coculture fibroblast: HADF | 0.745 ± 0.024 | 0.665 ± 0.023 | 0.629 ± 0.026 | 0.622 ± 0.029 | 0.528 ± 0.035 | 0.5 ± 0.039 | 0.479 ± 0.037 | 0.452 ± 0.039 | 0.444 ± 0.047
1 µM, coculture fibroblast: HCFa | 0.804 ± 0.064 | 0.75 ± 0.09 | 0.713 ± 0.1 | 0.695 ± 0.11 | 0.616 ± 0.14 | 0.588 ± 0.13 | 0.538 ± 0.12 | 0.504 ± 0.11 | 0.476 ± 0.092
1 µM, coculture fibroblast: HCPF | 0.814 ± 0.019 | 0.8229 ± 0.0025 | 0.783 ± 0.0095 | 0.666 ± 0.024 | 0.694 ± 0.014 | 0.65 ± 0.021 | 0.61 ± 0.025 | 0.585 ± 0.04 | 0.577 ± 0.051
1 µM, coculture fibroblast: HHSteC | 0.841 ± 0.033 | 0.776 ± 0.042 | 0.719 ± 0.043 | 0.668 ± 0.058 | 0.587 ± 0.036 | 0.557 ± 0.031 | 0.517 ± 0.028 | 0.481 ± 0.031 | 0.442 ± 0.047
1 µM, coculture fibroblast: HMF | 0.8381 ± 0.0055 | 0.91 ± 0.078 | 0.86 ± 0.049 | 0.737 ± 0.044 | 0.769 ± 0.014 | 0.728 ± 0.016 | 0.687 ± 0.022 | 0.641 ± 0.031 | 0.61 ± 0.051
1 µM, coculture fibroblast: HPFa | 0.929 ± 0.012 | 0.8618 ± 0.0056 | 0.8517 ± 0.00092 | 0.7796 ± 0.0049 | 0.7195 ± 0.0013 | 0.6961 ± 0.0016 | 0.65 ± 0.0093 | 0.61796 ± 8.1e-05 | 0.5813 ± 0.0051
1 µM, coculture fibroblast: HUF | 0.874 ± 0.019 | 0.799 ± 0.026 | 0.75 ± 0.035 | 0.683 ± 0.04 | 0.639 ± 0.048 | 0.613 ± 0.056 | 0.569 ± 0.051 | 0.542 ± 0.052 | 0.514 ± 0.056
1 µM, coculture fibroblast: Hs5 | 0.889 ± 0.039 | 0.899 ± 0.074 | 0.897 ± 0.1 | 0.89 ± 0.11 | 0.833 ± 0.12 | 0.807 ± 0.12 | 0.792 ± 0.12 | 0.781 ± 0.12 | 0.765 ± 0.13
1 µM, coculture fibroblast: Hs27A | 0.7808 ± 0.0038 | 0.7564 ± 0.0023 | 0.708 ± 0.0081 | 0.72 ± 0.011 | 0.58 ± 0.032 | 0.558 ± 0.038 | 0.514 ± 0.037 | 0.498 ± 0.038 | 0.509 ± 0.043
1 µM, coculture fibroblast: Hs343T | 0.8194 ± 0.0021 | 0.869 ± 0.044 | 0.802 ± 0.012 | 0.688 ± 0.02 | 0.681 ± 0.0098 | 0.6344 ± 0.0059 | 0.577 ± 0.0093 | 0.542 ± 0.0069 | 0.517 ± 0.017
1 µM, coculture fibroblast: WS1 | 0.825 ± 0.0098 | 0.755 ± 0.031 | 0.698 ± 0.045 | 0.607 ± 0.036 | 0.551 ± 0.032 | 0.51 ± 0.033 | 0.475 ± 0.043 | 0.449 ± 0.05 | 0.426 ± 0.047
